Experimental data: PubChem BioAssay AID652248 (Drosophila RNAi Screening Center, 2013)
Test: 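Kinase and phosphatase regulators of cell lengthening and shape variety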 (primary screen). Cells: cultured Drosophila hemocytes. Reagents: long dsRNA against Drosophila genes. Detection: 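Automated microscopy of stained actin, tubulin and nuclei; single-cell shape measures assigned to five reference shape types, giving a score per dsRNA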. Direction: elongated score: higher = more elongated bipolar cells; normal round score: higher = more normal rounded cells. Call rule: 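a gene counts as active when its knock-down clearly increases the elongated score; a low similarity score was then used to rank the actives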.
Here is a random part of 863 reagents tested. 32 of them (3.7%) count as active. 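Calls also used reproducibility and a similarity ranking whose scores are not deposited; many active genes show only modest elongated scores.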 Unmarked entries are inactive. Further read-outs or replicates are left out here. Reagent sequences are not shown. Not stated in the record: the amount of reagent, the time to read-out.

target gene	DRSC id	elongated score, rep 1	elongated score, rep 2	normal round score, rep 1
dpp (decapentaplegic)	DRSC00118	-0.53		0.76
dpp (decapentaplegic)	DRSC00121	-0.36		-0.26
dpp (decapentaplegic)	DRSC00813	1.67		-1.1
dpp (decapentaplegic)	DRSC26853	2.95		-3.72
CG6656	DRSC16085	-0.53		0.99
CanA1 (Calcineurin A1)	DRSC16600	-0.06		0.35
CanA1 (Calcineurin A1)	DRSC25868	3.64		-1.57
Fak (Focal adhesion kinase)	DRSC07426	-0.19 (active)		-1.11
Fak (Focal adhesion kinase)	DRSC26626	3.86 (active)		-0.86
CG42675	DRSC12157	-0.53		-1.59
CG42675	DRSC26577	-0.37		-1.08
slpr (slipper)	DRSC18225	0.2		0.35
slpr (slipper)	DRSC23321	-0.53		-0.58
nmo (nemo)	DRSC08902	-0.47		0.08
nmo (nemo)	DRSC11377	-0.24		0.34
nmo (nemo)	DRSC27949	-0.53		0.91
CG1344	DRSC04837	2.3		-1.41

Next part, starting with the last 2 of the part before.
target gene	DRSC id	elongated score, rep 1	elongated score, rep 2	normal round score, rep 1
nmo (nemo)	DRSC27949	-0.53		0.91
CG1344	DRSC04837	2.3		-1.41
Tak1 (TGF-beta activated kinase 1)	DRSC20390	0.72		-1.52
Tak1 (TGF-beta activated kinase 1)	DRSC20561	-0.05		-1.75
Tak1 (TGF-beta activated kinase 1)	DRSC20562	0.34		-0.59
CG11811	DRSC09862	1.23		-0.95
2mit	DRSC14194	-0.53		-0.81
CG34384	DRSC15444	-0.32		0.48
CG34384	DRSC16575	0.04		-0.38
niki (nimA-like kinase)	DRSC14285	-0.26	-0.15	0.4
Ppm1	DRSC08260	-0.53		-0.9
Ppm1	DRSC27792	3.04		-1.74
